The values below come from article PMC5996148.

Test systems include ARFIP2 (human); ARHGAP28 (human); ARID3B (human); ARL1 (human); ARL3 (human); ARL5A (human); ARL6IP2 (human); ARL8B (human); ARMC7 (human); ASB11 (human).
Common to all, as to experiment: protein microarray (ProtoArray v5.0), streptavidin-Alexa Fluor 647
Conditions in all cases: 3'-biotin; 20 mM Tris (pH 7.5), 5 mM MgCl2, 100 mM KCl, 0.1% Tween-20, A/T-rich and random oligonucleotide blockers; temperature not stated; high values mean tight binding

The other results are listed elsewhere or left out.

As to “GGGGACAGGGGTATGGGGAGGGG [G4-3 biotinylated (CtG)]”, the binding signal in the experiment with ARFIP2 (human) was -0.342 z-score; with ARHGAP28 (human), -0.301 z-score; in the experiment on ARID3B (human), -0.336 z-score; in the experiment with ARL1 (human), -0.315 z-score; in the experiment with ARL3 (human), -0.321 z-score; in the experiment on ARL5A (human) it was -0.331 z-score. Also, the binding signal is -0.319 z-score in the experiment on ARL6IP2 (human), -0.331 z-score with ARL8B (human), -0.288 z-score in the experiment on ARMC7 (human) and -0.332 z-score in the experiment on ASB11 (human).
